Measured values from patent US12415810B2, “2'-isopropyl-spiro (3,3'-pyrrolidine oxindole) liver X receptor regulator, preparation method therefor, and use thereof” (SHENZHEN CELL INSPIRE PHARMACEUTICAL DEVELOPMENT CO., LTD., priority 2019, dated 2025).
At least one compound was matched to its structure with a doubt left.

System: Triton WR-1339-induced hyperlipidemia mice
Assay: Lipid-lowering activity in Triton WR-1339-induced hyperlipidemia mice
Format: in vivo, C57BL/6J mice
Settings: serum, 100 mg/kg intragastric for 8 days
Method: 6-week-old SPF female C57BL/6J mice were purchased from the Experimental Animal Center of Sun Yat-sen University. The mice were randomly divided into 4 groups each including 6 mice, i.e., a normal control group, model a group, a fenofibrate group (100 mg/kg), and a B1 group (100 mg/kg), and intragastric administration was performed for 8 days. 24 hours before the last administration, the normal control group was intramuscularly injected with saline, and the remaining groups were injected with Triton WR-1339 (1500 mg/kg). One hour after the last administration, the eyeballs were removed to collect blood, the mice were executed by cervical dislocation, and the livers were collected. The plasma was allowed to stand for 1 hour, and the supernatant was collected by centrifugation at 4° C. and 3000 rpm. 100 mg of liver was weighed, added with methanol in 3 times the volume of the weighed liver, and homogenized thoroughly. Chloroform was then added in 6 times the volume and vortex oscillated. After centrifuging at 3000 rpm for 10 minutes, the lower chloroform layer was collected, and evaporated naturally overnight in a fume hood. 150 μL of 1% Triton ethanol was added and heated at 65° C. to be fully dissolved. Finally, triglycerides (TG), total cholesterol (TC), low-density lipoprotein cholesterol (LDL-C), and high-density lipoprotein cholesterol (HDL-C) in serum and liver samples were detected.

SMILES: CC(C)OC(=O)C(C)(C)Oc1ccc(C(=O)c2ccc(Cl)cc2)cc1 [fenofibrate, reference compound]
- HDL-C/TC: Neither fenofibrate nor compound 2a-1 had a significant effect
- increase in HDL-C level induced by Triton WR-1339: significantly inhibit
- increase in LDL-C level induced by Triton WR-1339: significantly inhibit
- increase in TC level induced by Triton WR-1339: significantly inhibit
- increase in TG level induced by Triton WR-1339: significantly inhibit
